Experimental data from PMC6548343.
These are yes or no findings as the source states them, for the method shown. Some binding calls cover weakened binding; strength is not graded here. Blank lines part the entries; values can stand above or below the binder they belong to.

The chains behind the UniProt entries cited, without tags or fusion partners. Where a name states a change or a piece, a line headed by the entry shows the natural chain unless it says otherwise. Residues count along the entry.
UniProt P53115: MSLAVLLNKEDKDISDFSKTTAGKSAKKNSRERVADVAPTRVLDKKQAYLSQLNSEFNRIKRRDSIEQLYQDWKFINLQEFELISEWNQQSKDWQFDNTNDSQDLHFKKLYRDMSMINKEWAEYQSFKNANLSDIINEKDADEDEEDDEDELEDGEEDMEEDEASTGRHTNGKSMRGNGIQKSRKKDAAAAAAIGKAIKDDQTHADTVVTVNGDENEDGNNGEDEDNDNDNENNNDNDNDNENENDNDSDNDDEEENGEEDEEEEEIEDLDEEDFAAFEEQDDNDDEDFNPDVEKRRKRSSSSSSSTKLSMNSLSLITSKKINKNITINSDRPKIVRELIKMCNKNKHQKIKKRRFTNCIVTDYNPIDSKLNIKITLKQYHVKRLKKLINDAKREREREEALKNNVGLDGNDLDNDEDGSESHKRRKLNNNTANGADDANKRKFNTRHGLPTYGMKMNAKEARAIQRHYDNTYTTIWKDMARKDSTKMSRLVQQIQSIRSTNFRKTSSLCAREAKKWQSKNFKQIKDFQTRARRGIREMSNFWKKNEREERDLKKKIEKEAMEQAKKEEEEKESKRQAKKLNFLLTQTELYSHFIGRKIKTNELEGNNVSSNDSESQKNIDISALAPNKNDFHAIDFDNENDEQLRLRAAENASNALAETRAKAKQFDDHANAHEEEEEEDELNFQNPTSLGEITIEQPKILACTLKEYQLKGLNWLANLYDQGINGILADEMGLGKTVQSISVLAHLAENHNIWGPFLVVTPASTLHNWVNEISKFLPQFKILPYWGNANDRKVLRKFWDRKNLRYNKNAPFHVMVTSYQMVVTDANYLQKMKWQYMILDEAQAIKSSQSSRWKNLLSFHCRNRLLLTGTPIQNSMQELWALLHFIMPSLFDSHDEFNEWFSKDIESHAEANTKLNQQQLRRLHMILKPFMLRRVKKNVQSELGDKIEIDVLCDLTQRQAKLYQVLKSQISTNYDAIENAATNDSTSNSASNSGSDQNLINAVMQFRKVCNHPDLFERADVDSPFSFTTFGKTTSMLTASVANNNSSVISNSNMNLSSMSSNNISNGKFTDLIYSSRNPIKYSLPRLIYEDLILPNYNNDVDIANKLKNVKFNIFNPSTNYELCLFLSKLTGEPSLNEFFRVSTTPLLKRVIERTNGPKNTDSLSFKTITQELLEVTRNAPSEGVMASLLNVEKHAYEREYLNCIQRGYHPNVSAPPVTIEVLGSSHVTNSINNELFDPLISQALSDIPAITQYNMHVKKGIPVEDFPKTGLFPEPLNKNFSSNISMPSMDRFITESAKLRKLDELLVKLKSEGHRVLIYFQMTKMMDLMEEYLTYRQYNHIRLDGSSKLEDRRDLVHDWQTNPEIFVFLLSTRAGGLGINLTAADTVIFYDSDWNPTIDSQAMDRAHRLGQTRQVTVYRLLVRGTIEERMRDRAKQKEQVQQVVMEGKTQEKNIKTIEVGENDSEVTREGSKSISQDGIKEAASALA
Ino80 (356–691 aa, named as N-FLAG): residues 356-691 of P53115

How the values were obtained:
[1] = biological target: Ino80 (356–691 aa, named as N-FLAG) (S. cerevisiae) (UniProt P53115); experiment: affinity co-purification (FLAG resin, then Mono Q) with SDS-PAGE or EM of the fractions; whole-cell extract of S. cerevisiae, 30%–55% ammonium sulfate cut, FLAG resin 2 h at 4°C, washes with 500 mM and 50 mM ammonium sulfate, elution with 3×FLAG peptide, Mono Q gradient 100–1000 mM ammonium sulfate
[2] = biological target: Ino80-2×FLAG (S. cerevisiae) (UniProt P53115); experiment: cryo-EM structure; endogenous INO80 complex purified by Ino80-2×FLAG, GraFix (0.02% glutaraldehyde), 13.1 Å; modules assigned by difference maps with the Arp8Δ and Ies1Δ sub-complexes and by rigid-body fitting
[3] = biological target: Ino80 with C-terminal modified TAP tag (Arp8Δ and Ies1Δ strains) (S. cerevisiae) (UniProt P53115); experiment: EM 3D reconstruction with difference mapping; INO80 sub-complex purified by TAP-tagged Ino80 from the Arp8Δ strain, compared with the holoenzyme and with the Ies1Δ sub-complex

binding [1]: binds
B1: Ies4 (protein, UniProt Q08561 1-116)
chain: MSQESSVLSESQEQLANNPKIEDTSPPSANSRDNSKPVLPWDYKNKAIEIKSFSGYKVNFTGWIRRDVREERQRGSEFTASDVKGSDDKATRKKEPADEDPEVKQLEKEGEDGLDS

binding [2]: binds | binding [3]: binds
B2: Nhp10 module (Nhp10–Ies1–Ies3–Ies5) (complex, UniProt Q03435 1-203; P43579 1-692; Q12345 1-250; P40060 1-125)
chain 1: MSVEEKKRRLEELKDQNVVLGLAIQRSRLSVKRLKLEYGVLLERLESRIELDPELNCEDPLPTLASFKQELLTKPFRKSKTKRHKVKERDPNMPKRPTNAYLLYCEMNKERIRQNGSLDVTRDLAEGWKNLNEQDRKPYYKLYSEDRERYQMEMEIYNKKISNIDADDDKEENEQKIKNNEEGSSTKVADSKGGEDGSLVSSN
chain 2: MGKRVYDPIHDTFQLREDNSDETKADSPMQSVKSGSQEEASPSSIQSETETVTTKSIPVIHEIEIDDKNDDDSTQSEEENTNILLNFEPSTVPEATGASTATGPVTTNTVRRKPKESNASKYNRHLKKPDGEPFNRKDIQFSFMQELLMDKRQIFTNVLKPLYKNSIVPINIDGDKLSINVTDKEYDARTFVFNDKLTFAQLYVLTIATSIKCSKILRDKLLLDQQVAFSTCVLALLVNIGRLNTTINFYLEMTSQLRTFHSVPVLQLHANDPKLLQDTPRLKSILKNLPWGNEQLSLMETYKKVDQNDGEVDTVNKFNIINMLFSICDNSGLIDKRFLSKYVEVESKAQEQDMVDEQNEVKETEAENEKQESKAAYATTLFDILDYSKYEPKDRSNILIWLLYIHLETNLSQEEVEESVRFFNGLEDGAPAGKFILRCTERSYDTDPEDELEFGANQRIKRREFMSKMEEGRKRERTNVTEVKKPSIGGDKSEEDGEGEDDKSEETVEETRSLLTPTPILESSSPMTLNRKKVTPQLPKVTPAAPTETEEEITSAAIIDKNDLNLTPLKKYNSSATVNKVDKLISLDLNKHVSENGKTQEEFLADLKKSQVPNRLKRRDIGLIKIFNEFEDIPVASVLGIRGKKRKKFKDNLLGFETDFMKNLGASKKVLLNKIERAEIDDEEATAMFKLE
chain 3: MKFEDLLATNKQVQFAHAATQHYKSVKTPDFLEKDPHHKKFHNADGLNQQGSSTPSTATDANAASTASTHTNTTTFKRHIVAVDDISKMNYEMIKNSPGNVITNANQDEIDISTLKTRLYKDNLYAMNDNFLQAVNDQIVTLNAAEQDQETEDPDLSDDEKIDILTKIQENLLEEYQKLSQKERKWFILKELLLDANVELDLFSNRGRKASHPIAFGAVAIPTNVNANSLAFNRTKRRKINKNGLLENIL
chain 4: MPSKDPESVIDKEIRKISARNDELIKQDGTLKREYTTLLRKVSSVITVLNSIDDADTGSAETELPRLISQATVEKVPELKWYNDQISLITEKLEDDEDIEVPEELMDAYTLYKETPLLYNDTHTP
